# Data: PubChem BioAssay AID504467 (National Center for Advancing Translational Sciences (NCATS), 2011)
# Screen size: about 330,000 compounds; about 7,700 (2.3%) were called active. The shares of active, inactive and inconclusive entries below differ from those in the screen. Calls follow the shape of the dose curve; as a rule, active = well fitted inhibition curve with a large enough effect; inconclusive = small, poorly fitted or top-dose-only effect, or effect the other way; inactive = flat fitted curve, though single readings scatter. A potency beside an inconclusive call is a rough fit, not a confirmed value.
# Assay: qHTS screen for small molecules that inhibit ELG1-dependent DNA repair in human embryonic kidney (HEK293T) cells expressing luciferase-tagged ELG1; also: nearly all actives have a fitted effect of over 55% in size
# Details: HEK293T ELG1-luciferase reporter, luminescence, 16 h, DNA damage induced by 5-fluorouridine; activity change, negative = inhibition: at 46.1 µM (top of the series)
# Method in brief: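 Quantitative HTS, concentration-response format. 2,000 cells/well co-treated with 5-fluorouridine and compound, 16 hr in 5% CO2 at 37 °C; ONE-Glo luminescence read after 30 min.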
# % is scaled to controls: 0 for no effect and ±100 for the full control effect; potency is read from the fitted curve at half-maximal effect.
SMILES,Potency,"activity change, negative = inhibition"
Cc1nc2cc(-c3ccccc3)nn2c(N)c1-c1ccccc1,"inconclusive: 0.651 µM [activator, full curve]",–
COc1cc(C)ccc1OCC(=O)NCC1CCCO1 (stereo unspecified),"inconclusive: 23.1 µM [activator, single point]",–
COC(=O)c1cc2c(ccn2-c2ccc(F)cc2)n1CC(=O)N1CCN(C(=O)c2ccco2)CC1,active: 16.4 µM,–
COc1cc(O)c(CCC(=O)c2ccc(OC)c(OC)c2)c(OC)c1,"inconclusive: 11.2 µM [inhibitor, partial curve, poor fit]",–
O=C1CSC(=Nc2ccc(Cl)cc2)N1Cc1cccnc1,"inconclusive: 0.0065 µM [activator, full curve, poor fit]",–
COc1cccc(C(=O)Nc2sc3c(c2C(=O)O)CCCC3)c1,"inconclusive: 0.0517 µM [inhibitor, partial curve, poor fit]",–
NS(=O)(=O)OCC(Cc1ccccc1)N1C(=O)c2ccccc2C1=O (stereo unspecified),–,inactive: -2.09%
O=C(N/N=C/c1ccc2nccnc2c1)c1ccncc1,–,inactive: -0.574%
COc1ccc2cc(C#N)c(N3CCN(C(=O)c4ccccc4C)CC3)nc2c1,active: 13 µM,–
COc1ccc(OC)c(CCNC(=O)c2ccc(CS(=O)(=O)c3ccc(Br)cc3)o2)c1,"inconclusive: 23.1 µM [inhibitor, single point]",–
COc1ccccc1NC(=S)NCCSc1ccc(Cl)cc1,–,inactive: -3.98%
Cc1cc(C(=O)NNc2ccc(F)cc2F)no1,active: 4.11 µM,–
CC1(C)Cc2c(sc(NC(=O)c3ccccc3Cl)c2C(=O)O)CO1,–,inactive: -10.8%
COc1ccc(SN=C2C(C)=CC(=O)C=C2C)cc1,"inconclusive: 13 µM [inhibitor, partial curve, poor fit]",–
CCOc1ccc2oc(C(=O)N(CC)CC(=O)Nc3ccc(NC(C)=O)cc3)c(C)c2c1,"inconclusive: 23.1 µM [inhibitor, partial curve, poor fit]",–
COC(=O)c1ccc(CN2[C@H](C(=O)OC)C[C@@]3(O)[C@H](O)[C@H](O)[C@H](O)C[C@@H]23)cc1,"inconclusive: 13 µM [activator, partial curve, poor fit]",–
N#Cc1cnc2nc(SCc3ccccc3)nn2c1,"inconclusive: 14.6 µM [activator, partial curve]",–
Nc1cc(S(=O)(=O)Nc2ccccc2Cl)ccc1N1CCCCC1,–,inactive: 8.49%
CCc1nnc(NC(=O)CSc2nnc(C)n2-c2ccc(C)cc2)s1,–,inactive: -12.9%
COc1ccc(S(=O)(=O)CC2(O)CCN(C(=O)CC(C)C)CC2)cc1,–,inactive: 8.96%
Cc1csc2nc(O)c(C(=O)NCCCc3ccccc3)c(=O)n12,"inconclusive: 6.51 µM [activator, single point]",–
O=C(Nc1cccc(NC(=O)c2cccs2)c1)c1ccc([N+](=O)[O-])o1,active: 16.4 µM,–
N/C(=N\NC(=O)Nc1ccccc1)c1ccccn1,"inconclusive: 18.3 µM [activator, single point]",–

SMILES,Potency,"activity change, negative = inhibition"
Cc1ccc(C(=O)Nc2cccc(C(=O)O)c2)cc1S(=O)(=O)N1CCCCC1,"inconclusive: 1.03 µM [activator, single point]",–
O=C(Nc1ccc2c(c1)OCO2)c1ccc([N+](=O)[O-])cc1[N+](=O)[O-],"inconclusive: 20.6 µM [activator, partial curve, poor fit]",–
O=c1c2[nH]c3ccc(F)cc3c2ncn1CCN1CCN(Cc2ccccc2)CC1,–,inactive: 15.4%
C/C(=N/NC(=O)C1COc2ccccc2O1)c1ccco1 (stereo unspecified),"inconclusive: 23.1 µM [activator, partial curve, poor fit]",–
COC(=O)c1cccc(NC(=O)CN2CCN(c3ccc(OC)cc3)CC2)c1,"inconclusive: 18.4 µM [inhibitor, single point]",–
O=C(CN(C(=O)CCC(=O)Nc1ccccn1)c1ccc(F)cc1)NCCc1ccccc1,–,inactive: 7.36%
CCCn1c(-c2ccc[nH]c2=O)nc2cc(C)c(C)cc21,"inconclusive: 23.1 µM [activator, partial curve]",–
CC(C)c1ccc(-c2c(C#N)c(N)nc(SCC(=O)N3CCCCC3)c2C#N)cc1,"inconclusive: 23.1 µM [activator, single point]",–
CCC(=O)N(Cc1cc2cc(OC)ccc2[nH]c1=O)c1cc(C)ccc1C,"inconclusive: 0.58 µM [inhibitor, single point]",–
COc1ccc(O)c(C(=O)c2cnn(C(=O)c3cccc(S(=O)(=O)N(C)C)c3)c2)c1,–,inactive: -19.7%
CCOC(=O)C1(CCc2ccccc2)CCN(Cc2c(O)cccc2OC)CC1,"inconclusive: 18.3 µM [inhibitor, partial curve]",–
CCCC(=O)Nc1cccc(NC(=O)CN2CCN(c3ccccc3OC)CC2)c1,"inconclusive: 11.6 µM [inhibitor, partial curve]",–
Nc1cccc(-c2nc3ccc(C(=O)c4ccccc4)cc3[nH]2)c1,"inconclusive: 2.91 µM [activator, partial curve]",–
Cc1c(C(=O)N(C)c2ccc(Cl)cc2)cnn1-c1ccccc1,"inconclusive: 14.6 µM [activator, partial curve]",–
CN(C)CCCN(C(=O)C1COc2ccccc2O1)c1nc2ccc(F)cc2s1 (stereo unspecified),–,inactive: 24.1%
O=C(N/N=C/c1ccc(C(F)(F)F)cc1)c1ccncc1,–,inactive: 7.63%
Nc1ccc(C(=O)OCc2ccncc2)cc1[N+](=O)[O-],"inconclusive: 3.66 µM [activator, partial curve, poor fit]",–
CCN(CC(=O)NCc1ccc(F)cc1)C(=O)c1cccnc1SC,–,inactive: 13.4%
Cc1ccc(S(=O)(=O)N(C)C)cc1NC(=O)c1cncc(Br)c1,active: 14.6 µM,–
CN(c1nc(-c2ccc(Br)cc2)cs1)C1CCS(=O)(=O)C1 (stereo unspecified),–,inactive: 17.5%
O=C(CNC(=O)c1ccc2c(c1)OCO2)N/N=C(Br)/C=C/c1ccccc1,"inconclusive: 18.4 µM [inhibitor, partial curve]",–
Cc1ccc(OCC(=O)N(Cc2ccccc2)c2ccccn2)cc1,–,inactive: 0%
CSc1ncccc1C(=O)OCC(=O)c1cc(C)n(C)c1C,"inconclusive: 1.46 µM [activator, partial curve]",–

# Of the compounds above, these have fluorine.
SMILES,Potency,"activity change, negative = inhibition"
COC(=O)c1cc2c(ccn2-c2ccc(F)cc2)n1CC(=O)N1CCN(C(=O)c2ccco2)CC1,active: 16.4 µM,–
Cc1cc(C(=O)NNc2ccc(F)cc2F)no1,active: 4.11 µM,–
O=c1c2[nH]c3ccc(F)cc3c2ncn1CCN1CCN(Cc2ccccc2)CC1,–,inactive: 15.4%
O=C(CN(C(=O)CCC(=O)Nc1ccccn1)c1ccc(F)cc1)NCCc1ccccc1,–,inactive: 7.36%
CN(C)CCCN(C(=O)C1COc2ccccc2O1)c1nc2ccc(F)cc2s1 (stereo unspecified),–,inactive: 24.1%
O=C(N/N=C/c1ccc(C(F)(F)F)cc1)c1ccncc1,–,inactive: 7.63%
CCN(CC(=O)NCc1ccc(F)cc1)C(=O)c1cccnc1SC,–,inactive: 13.4%
